Measured values from paper PMC11515921, “Unraveling the molecular determinants of a rare human mitochondrial disorder caused by the P144L mutation of FDX2” (Protein Science : A Publication of the Protein Society, 2024).
Results are given in words; binding and its absence hold for the method and conditions named. Binding can be weak; no strength is given.

Columns and labels:
[1] = molecular target: P144L [2Fe-2S] FDX2 (ferredoxin-2), residues 69-186 (human); assay: NMR titration; mixtures of 15N-labeled [2Fe-2S]^2+ FDX2 (WT or P144L) and FDXRox at 1:0.5 and 1:1 ratio with 1 mM NADPH (excess); 1H-15N HSQC; both purified
[2] = molecular target: WT [2Fe-2S] FDX2 (ferredoxin-2), residues 69-186 (human); assay: as above
[3] = molecular target: P144L [2Fe-2S] FDX2 (ferredoxin-2), residues 69-186 (human); assay: NMR titration; 15N-labeled 150 μM [2Fe-2S]^2+ FDX2 (WT or P144L), unlabeled FDXRox added from 0.3 to 1.2 mol eq.; 1H-15N HSQC at 298 K, 900 MHz; 30 mM HEPES, 150 mM NaCl pH 7.5; both purified
[4] = molecular target: WT [2Fe-2S] FDX2 (ferredoxin-2), residues 69-186 (human); assay: as above

binding [1]: binds
binding [2]: binds
binding [3]: binds
binding [4]: binds
B1: ferredoxin reductase FDXR, residues 33-491 (enzyme, UniProt P22570 33-491)
chain: STQEKTPQICVVGSGPAGFYTAQHLLKHPQAHVDIYEKQPVPFGLVRFGVAPDHPEVKNVINTFTQTAHSGRCAFWGNVEVGRDVTVPELREAYHAVVLSYGAEDHRALEIPGEELPGVCSARAFVGWYNGLPENQELEPDLSCDTAVILGQGNVALDVARILLTPPEHLERTDITKAALGVLRQSRVKTVWLVGRRGPLQVAFTIKELREMIQLPGARPILDPVDFLGLQDKIKEVPRPRKRLTELLLRTATEKPGPAEAARQASASRAWGLRFFRSPQQVLPSPDGRRAAGVRLAVTRLEGVDEATRAVPTGDMEDLPCGLVLSSIGYKSRPVDPSVPFDSKLGVIPNVEGRVMDVPGLYCSGWVKRGPTGVIATTMTDSFLTGQMLLQDLKAGLLPSGPRPGYAAIQALLSSRGVRPVSFSDWEKLDAEEVARGQGTGKPREKLVDPQEMLRLLGH
